Here are results for one substance from publication doi:10.1101/2021.07.02.450872.

The chains behind the UniProt entries cited, without tags or fusion partners. Where a name states a change or a piece, a line headed by the entry shows the natural chain unless it says otherwise.
UniProt Q3ULJ3: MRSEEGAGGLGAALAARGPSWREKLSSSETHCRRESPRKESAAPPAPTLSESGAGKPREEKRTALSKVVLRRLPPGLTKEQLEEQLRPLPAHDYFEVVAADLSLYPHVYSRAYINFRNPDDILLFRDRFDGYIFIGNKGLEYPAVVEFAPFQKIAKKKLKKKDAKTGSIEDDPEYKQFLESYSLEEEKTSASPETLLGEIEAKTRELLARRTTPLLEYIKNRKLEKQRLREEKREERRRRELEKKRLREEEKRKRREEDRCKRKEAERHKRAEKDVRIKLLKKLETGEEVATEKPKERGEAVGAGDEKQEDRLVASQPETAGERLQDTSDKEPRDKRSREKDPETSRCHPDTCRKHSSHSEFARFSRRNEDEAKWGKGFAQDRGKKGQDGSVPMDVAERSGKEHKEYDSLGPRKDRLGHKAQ
UniProt Q9HAU5: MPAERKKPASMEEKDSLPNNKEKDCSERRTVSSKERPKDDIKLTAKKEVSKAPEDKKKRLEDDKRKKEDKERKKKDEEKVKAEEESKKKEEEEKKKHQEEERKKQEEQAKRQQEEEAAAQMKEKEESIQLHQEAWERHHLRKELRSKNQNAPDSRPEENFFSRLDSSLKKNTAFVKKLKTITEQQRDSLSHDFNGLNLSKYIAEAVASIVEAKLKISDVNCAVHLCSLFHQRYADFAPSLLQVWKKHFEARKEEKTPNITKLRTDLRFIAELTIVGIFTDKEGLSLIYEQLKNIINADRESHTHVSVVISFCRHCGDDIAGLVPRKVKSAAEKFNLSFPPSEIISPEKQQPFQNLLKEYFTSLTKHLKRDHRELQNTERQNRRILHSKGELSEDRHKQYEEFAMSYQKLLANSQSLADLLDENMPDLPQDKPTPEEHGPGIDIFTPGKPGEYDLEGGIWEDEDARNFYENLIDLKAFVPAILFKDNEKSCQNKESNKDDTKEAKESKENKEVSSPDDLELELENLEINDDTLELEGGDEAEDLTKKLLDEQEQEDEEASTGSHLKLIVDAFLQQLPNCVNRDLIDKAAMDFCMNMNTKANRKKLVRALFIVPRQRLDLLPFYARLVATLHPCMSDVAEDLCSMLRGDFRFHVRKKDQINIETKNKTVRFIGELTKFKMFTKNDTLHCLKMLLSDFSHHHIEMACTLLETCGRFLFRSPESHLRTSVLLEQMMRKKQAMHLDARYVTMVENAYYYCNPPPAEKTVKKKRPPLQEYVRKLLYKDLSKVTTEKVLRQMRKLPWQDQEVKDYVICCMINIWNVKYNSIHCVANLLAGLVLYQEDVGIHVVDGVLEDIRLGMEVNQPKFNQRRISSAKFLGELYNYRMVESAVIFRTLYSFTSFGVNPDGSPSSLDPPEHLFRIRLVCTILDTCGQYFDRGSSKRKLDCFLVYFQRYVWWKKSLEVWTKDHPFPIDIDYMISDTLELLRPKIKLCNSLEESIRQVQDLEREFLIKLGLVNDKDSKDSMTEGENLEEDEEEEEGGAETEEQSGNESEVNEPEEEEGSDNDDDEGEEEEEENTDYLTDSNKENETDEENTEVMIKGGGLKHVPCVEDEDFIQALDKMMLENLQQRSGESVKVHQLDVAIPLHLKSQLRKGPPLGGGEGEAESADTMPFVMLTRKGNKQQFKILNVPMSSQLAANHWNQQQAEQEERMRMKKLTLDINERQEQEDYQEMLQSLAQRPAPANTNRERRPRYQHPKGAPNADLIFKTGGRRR

Results are given in words; binding and its absence hold for the method and conditions named. Binding seen in cells or lysates may run through a third protein. Binding can be weak; no strength is given.

The target in the assay is FLAG-tagged mouse UPF3A (in 3DKO HCT116 cells) (mouse) (UniProt Q3ULJ3). Description: co-IP.

For “UPF2 (endogenous, HCT116 3DKO cells) (from UniProt Q9HAU5 1-1272)”, the binding entry was “binds”.
